Reference: PubChem BioAssay AID1347423 (Functional Genomics Laboratory (NCATS/FGL), 2020)
Out of some 52,000 sequences screened, about 210 (0.4%) were called active.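 Rule for the calls: active = gene whose silencing raises cell survival under the drug, median off-target-corrected z-score across its silencing RNAs 2 or more; inactive = the rest.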 This is one part of the list.

Assay: Resistance to Poly (ADP-Ribose) Polymerase inhibitor: Gene Identification via Genome-wide siRNA Screen
Details: mouse BRCA2 R2336H ES cells, olaparib, CellTiter-Glo viability; hits give high values
How it was run: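 Genome-wide siRNA screen (3 siRNAs/gene, 20 nM) in mouse ES cells carrying hypomorphic BRCA2 R2336H; olaparib 500 nM added 48 h post-transfection, CellTiter-Glo viability 72 h later. Normalized to plate-median negative control; MAD z-scores, gene median, seed-adjusted.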

Row | Sequence | z-score
1 | GCGGAGAGAAAGAGCUGAGTT against C230071H18Rik | inactive: 0.109
2 | GCUUAACUAGUAUCCUAUGTT against Tas2r135 | inactive: 0.53
3 | GGUUCACCCAGGAAGUUCATT against Scn9a | inactive: -2.27
4 | GGAACAAUUGAUAAGACGATT against AA407526 | inactive: -0.681
5 | GGAGCAUAAAAGAGAAAGATT against Jundm2 | inactive: -0.244
6 | CCUUAAACAGCUUUUCAGATT against Dnchc2 | inactive: 0.886
7 | GGCUAUGUGCUGCACUUGCTT against Cyp27a1 | inactive: 0.467
8 | GGCCAUUGUAGAGCUGGUATT against Myh9 | inactive: -2.55
9 | GCAGCUUUUGUACUAUCUATT against Kifap3 | inactive: -0.0279
10 | CCUGUUUGCAUAGAUAGACTT against Pdgfc | inactive: -0.0813
11 | GGAGGUGGACCAAAAUGUCTT against Tessp2 | inactive: -1.57
12 | GGGCAUGAUAAGGAAGACATT against 1700029F12Rik | inactive: -1.57
13 | CCACCUCACAUUAAAAAAGTT against Smc1l1 | inactive: 0.657
14 | GGAACAAGGAUGUAAAAUUTT against Olfr1090 | inactive: -0.69
15 | AACUGUCACCGUUCAAACCTT against Ociad2 | inactive: -1.42
16 | GGAACUCUGUAGUUUUCAATT against 4732437J24Rik | inactive: -0.62
17 | GGAGUAAAAAUGAGUAUGATT against Abcg3 | inactive: -1.48
18 | GCAUGAUUCACCUGACACCTT against Titf1 | inactive: 1.01
19 | CCCAUUGAACUGCAUACUATT against Car3 | inactive: -0.375
20 | CGAUAUGAUGUAUUCCAUCTT against Fcmd | inactive: -0.232
21 | CCGUGUUUAAAGACAGUCCTT against B230369L08Rik | inactive: -0.645
22 | GGAGCUCUAUAGAAAUGCATT against Cul3 | inactive: -0.355

Row | Sequence | z-score
23 | GGAUCACAGAAUAGAACAATT against Ptgds2 | inactive: -0.651
24 | GGAUUAGACCUAUGGUGCUTT against B930011P16Rik | inactive: 3.48
25 | GGGACAAGGACUUUAAAAATT against Scamp2 | inactive: 0.917
26 | GGGCUGAUGAGCAAAGCAUTT against ORF21 | inactive: -0.817
27 | CCGACUCUUGGUGCCAUACTT against Hadhsc | inactive: -0.689
28 | GCCUAUCAGAAGCUGUUAATT against Prkr | inactive: -1.25
29 | GGAGUGAUAGAAUCAACAUTT against Manea | inactive: 0.82
30 | GGAAAAUGCCAUUCAUUUUTT against 4930401F20Rik | inactive: -0.824
31 | CCUCUUAUCUCGAACAUUATT against 1700022L09Rik | inactive: -0.237
32 | GGUGGAUAAUGUUUAAACATT against V1rg7 | inactive: -0.136
33 | GGAGGUCCCAGUCAUUAUCTT against Gdap1l | inactive: 0.497
34 | GGAGCUCCUGAACAGGAUCTT against Gpr26 | inactive: 0.245
35 | CCAAGAAGGUUGGGAAAGCTT against 1100001I22Rik | inactive: -3.08
36 | CCAUAUGUAGCUAUGGUUATT against Cul2 | inactive: 1.04
37 | GCACAAAUGGGAAUACGACTT against BC025816 | inactive: 1.07
38 | CGCACAGUACUUUUCUCCUTT against Rtn1 | inactive: 0.166
39 | GCUCUAUCGUCCAAGCUUUTT against Dazap2 | inactive: 1.53
40 | GGCCCUAUGAUGAACCUAATT against Calb2 | inactive: -0.767
41 | CCUACUCGUGUCGUGAUAATT against Rxrb | inactive: -0.622
42 | GCUCAGGUAUCUUCGAUUATT against LOC434179 | inactive: 1.78
43 | ACGAGGGCCUGAAAAACCUTT against Hbb-b2 | inactive: -1.6
44 | GCUUAACAACAGCAAGAACTT against V1rh14 | inactive: -0.334

In another format: entries from further up.
GCGGAGAGAAAGAGCUGAGTT against C230071H18Rik
  z-score: inactive: 0.109
CCUCUUAUCUCGAACAUUATT against 1700022L09Rik
  z-score: inactive: -0.237
GCUCAGGUAUCUUCGAUUATT against LOC434179
  z-score: inactive: 1.78

Next part

Row | Sequence | z-score
45 | GGGCCUGUUAAGCUCAAAGTT against 2610014H22Rik | inactive: -0.534
46 | GGAAAAGAUGAAGUGGUUUTT against Hist1h2be | inactive: 0.66
47 | CGGCGUGCACUCUGGAUAATT against 5730419I09Rik | inactive: -1.18
48 | GCUCCUGUAGACAGGUUAGTT against Serac1 | inactive: -1.62
49 | GGCUGUCAUCUACGUUCUUTT against BC022224 | inactive: 0.392
50 | GCUGCUUUUUCAUUGUCACTT against Hcrtr1 | inactive: 0.115
51 | GCUAUUGGUGUAUUUCAAUTT against Srd5a2l2 | inactive: -1.08
52 | GGAGCUGAGCAACAUCACATT against Il13 | inactive: -0.92
53 | GCCCAGCAAAACGAAAUACTT against Foxc2 | inactive: -0.813
54 | CGGAGCUGUCUGAUUGUCGTT against R75581 | inactive: -0.234
55 | CCCUAUUUGACAAAUUCCUTT against Cdo1 | inactive: -0.0474
56 | GCUUGCUAAGAUUGAGUAUTT against Cerkl | inactive: -1.97
57 | GGUAAGUUGUGUUUACUUATT against Fts | inactive: 0.731
58 | GGCCUUUCAAGGAACCAAGTT against Psme3 | inactive: -1.33
59 | GCAAGACUUGUCAUGACACTT against Lnp | inactive: -0.627
60 | GAAAAUGGUCACUACUGAGTT against S100a8 | inactive: 1.02
61 | GAAGACUCGGAAGAAAAUGTT against 1110020C13Rik | inactive: -2.22
62 | GCCAUAAACCGAGGAAAAATT against BC048651 | inactive: -0.515
63 | GGAGCCUCCAUAGAAACCATT against Klk9 | inactive: -2.59
64 | GGAGCUCUUGGAUAUAAAATT against Eif4enif1 | inactive: 0.571
65 | GGGCAACUGUACGUACCAUTT against C1qr1 | inactive: -0.668
66 | CCGAAUGUUUUCCCACCUGTT against Lgi2 | inactive: -0.922
